Taken from: PubChem BioAssay AID743454 (Peter MacCallum Cancer Centre, 2014)
Test: 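Search for knock-downs that restore vorinostat killing in resistant colon cancer cells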 (primary screen). System: human HCT116-VR colon cancer cells, selected for vorinostat resistance. Reagent: siRNA pool against human genes, 40 nM siRNA pool. Timing: vorinostat for 24 h, read-out about 72 h after transfection. Treatment: vorinostat at 2.5 µM final. Read-out: 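Two measures, CellTiter-Fluor viability and luminescent caspase 3/7 activity, each as fold change against same-plate mock wells, mean of duplicates, then screen-wide robust z-score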. Direction: viability robust z-score: higher = more viable cells than screen typical; caspase robust z-score: higher = more caspase 3/7 activity than screen typical. Active means: 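a knock-down is a hit when classed RV1 or RV2 for lowered viability, or CA1 or CA2 for caspase activation; those lethal without drug were dropped; hits were retested singly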.
This is a random part of about 18,000 reagents. Over the whole deposit, 450 (2.5%) got an active call. 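Single biological run; no consistent viability z cut-off exists, so the class columns, not z-scores, define the calls.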

no.	target gene	viability hit class	caspase hit class	viability robust z-score	caspase robust z-score	activity call
1	PLEK (GeneID 5341)	no change	no change	0.06	-1.06	inactive
2	ILF2 (GeneID 3608)	no change	no change	0.68	0.2	inactive
3	LSM8 (GeneID 51691)	no change	no change	-1.5	0.69	inactive
4	PCDHA13 (GeneID 56136)	no change	no change	0.16	1.33	inactive
5	REV3L (GeneID 5980)	no change	no change	0.18	-0.64	inactive
6	LINC02915 (GeneID 400360)	no change	no change	0.02	1.17	inactive
7	PBX1 (GeneID 5087)	no change	no change	-0.26	0.13	inactive

Part of the list above, reformatted.
| target gene | viability hit class | caspase hit class | viability robust z-score | caspase robust z-score | activity call |
| --- | --- | --- | --- | --- | --- |
| REV3L (GeneID 5980) | no change | no change | 0.18 | -0.64 | inactive |
| LINC02915 (GeneID 400360) | no change | no change | 0.02 | 1.17 | inactive |
| PBX1 (GeneID 5087) | no change | no change | -0.26 | 0.13 | inactive |

The results go on:
no.	target gene	viability hit class	caspase hit class	viability robust z-score	caspase robust z-score	activity call
8	EMP3 (GeneID 2014)	no change	no change	-0.73	-0.2	inactive
9	MC1R (GeneID 4157)	no change	no change	1.01	-0.42	inactive
10	NTPCR (GeneID 84284)	no change	no change	-0.24	-0.41	inactive
11	DHPS (GeneID 1725)	no change	no change	0.78	3.96	inactive
12	C1RL (GeneID 51279)	no change	CA2 (caspase activation)	-1.35	6.13	active
13	YIF1B (GeneID 90522)	no change	no change	-0.49	-0.57	inactive
14	CDHR1 (GeneID 92211)	no change	no change	1	-0.5	inactive
15	ZNF184 (GeneID 7738)	no change	no change	0.22	3.74	inactive
16	SPMIP3 (GeneID 200159)	no change	no change	-2.38	-0.12	inactive
17	ABCG5 (GeneID 64240)	no change	no change	0.29	0.38	inactive
18	PDIA2 (GeneID 64714)	no change	no change	0.86	0.29	inactive
19	RPL30 (GeneID 6156)	no change	no change	-4.81	-1.22	inactive
20	ORM2 (GeneID 5005)	no change	no change	0.42	0.18	inactive
21	FGF9 (GeneID 2254)	no change	no change	1.11	0.02	inactive
22	CLK3 (GeneID 1198)	no change	no change	-0.22	1.74	inactive
23	FCRLA (GeneID 84824)	no change	no change	0.45	0.37	inactive
